Results reported in patent publication US20230287146A1.
No constants are given. Whether binding was seen depends on the method and setting. Binding calls can cover weak binding; strength is not graded here.

Sequences of proteins named here, by UniProt entry; tags and fusion partners are left off. A change or cut given only in a name is not applied to a line headed by its entry.
UniProt P51654: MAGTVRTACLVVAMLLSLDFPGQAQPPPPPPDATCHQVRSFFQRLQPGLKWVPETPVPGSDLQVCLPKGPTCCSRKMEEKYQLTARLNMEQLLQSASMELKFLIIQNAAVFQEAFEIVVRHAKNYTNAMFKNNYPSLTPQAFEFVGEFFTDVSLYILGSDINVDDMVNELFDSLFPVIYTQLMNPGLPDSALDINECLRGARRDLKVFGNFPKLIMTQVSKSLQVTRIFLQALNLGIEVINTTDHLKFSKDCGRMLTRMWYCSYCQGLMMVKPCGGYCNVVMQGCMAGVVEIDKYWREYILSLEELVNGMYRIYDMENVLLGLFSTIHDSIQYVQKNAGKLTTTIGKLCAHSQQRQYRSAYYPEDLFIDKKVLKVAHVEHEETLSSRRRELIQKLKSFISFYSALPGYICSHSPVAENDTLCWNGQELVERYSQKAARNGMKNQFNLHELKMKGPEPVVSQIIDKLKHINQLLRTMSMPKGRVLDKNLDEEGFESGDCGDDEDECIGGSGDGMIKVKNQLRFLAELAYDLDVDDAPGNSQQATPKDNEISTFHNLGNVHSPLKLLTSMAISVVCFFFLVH

B1: AD84 anti-GPC3 bivalent mAb (antibody, V domains shown)
VH: EVQLVESGGGLVQPGGSLKLSCAASGFTFNTYAMNWVRQAPGKGLEWVGRIRSKYNNYATYYADSVKDRFTISRDDSKNTAYLQMNSLKTEDTAVYYCVRHGNFGNSYVSWFAYWGQGTLVTVSS
VL: EIVLTQSPGTLSLSPGERATLSCRASQKVTNRELAWYQQKPGQAPRLLIYGATTKATGIPDRFSGSGSGTDFTLTISRLEPEDFAVYYCQQWALSPRGWVFGQGTKVEIK
B2: ERY974 (bispecific antibody, human IgG4 S228P, kappa, N297A)
heavy 1: QVQLVQSGAEVKKPGASVTVSCKASGYTFTDYEMHWIRQPPGEGLEWIGAIDGPTPDTAYSEKFKGRVTLTADKSTSTAYMELSSLTSEDTAVYYCTRFYSYTYWGQGTLVTVSSASTKGPSVFPLAPCSRSTSESTAALGCLVKDYFPEPVTVSWNSGALTSGVHTFPAVLQSSGLYSLSSVVTVPSSSLGTQTYTCNVDHKPSNTKVDKRVESKYGPPCPPCPAPEFRGGPKVFLFPPKPKDTLMISRTPEVTCVVVDVSQEDPEVQFNWYVDGVEVHNAKTKPREEQFASTYRVVSVLTVLHQDWLNGKEYKCKVSNKGLPSSIEKTISKAKGQPREPQVYTLPPSQEEMTKNQVSLTCLVKGFYPSDIAVEWQSNGQTENNYKTTPPVLDSDGSFFLYSKLTVDKSRWQEGNVFSCSVMHEALHNHYTQESLSLSP
heavy 2: QVQLVESGGGVVQPGGSLRLSCAASGFTFSNAWMHWVRQAPGKGLEWVAQIKDKSQNYATYVAESVKGRFTISRADSKNSIYLQMNSLKTEDTAVYYCRYVHYAAGYGVDIWGQGTTVTVSSASTKGPSVFPLAPCSRSTSESTAALGCLVKDYFPEPVTVSWNSGALTSGVHTFPAVLQSSGLYSLSSVVTVPSSSLGTKTYTCNVDHKPSNTKVDKRVESKYGPPCPPCPAPEFRGGPKVFLFPPKPKDTLMISRTPEVTCVVVDVSQEDPEVQFNWYVDGVEVHNAKTKPREEQFASTYRVVSVLTVLHQDWLNGKEYKCKVSNKGLPSSIEKTISKAKGQPREPQVYTLPPSQKEMTKNQVSLTCLVKGFYPSDIAVEWESNGQPENNYKTTPPVLDSDGSFFLYSKLTVDKSRWQEGNVFSCSVMHEALHNRYTQKSLSLSP
light: DIVMTQSPLSLPVTPGEPASISCRSSQPLVHSNRNTYLHWYQQKPGQAPRLLIYKVSNRFSGVPDRFSGSGSGTDFTLKISRVEAEDVGVYYCGQGTQVPYTFGQGTKLEIKRTVAAPSVFIFPPSDEQLKSGTASVVCLLNNFYPREAKVQWKVDNALQSGNSQESVTEQDSKDSTYSLSSTLTLSKADYEKHKVYACEVTHQGLSSPVTKSFNRGEC

Tests used:
[1] = molecular target: human Glypican-3 (GPC3) (human) (UniProt P51654); assay: flow cytometry, bivalent mAb on GPC3 positive cells
[2] = molecular target: human Glypican-3 (GPC3) (human) (UniProt P51654); assay: flow cytometry on Hep G2 cells, compared with AD84L3-1/N

| Binder | binding [1] | binding [2] |
| --- | --- | --- |
| B1 | binds |  |
| B2 |  | binds |
